Results published in PubChem BioAssay AID330 (DTP/NCI, 2004).
The list does not hold the whole screen: it gathers tests that were run many times, whatever their T/C, doses with no T/C, and many T/C values between a quarter and a half above the control. Further doses and runs are listed elsewhere. T/C gives the treated animals as a percentage of the vehicle group. Some entries give survivors of the animals treated and no T/C: the source files T/C as zero there, which appears to mark a toxic dose or a test without result, not a measured value. Some survivor counts are full or nearly so, which does not show that the dose was tolerated: the source hardly ever lists a survival T/C far under the control, and the zero likely stands for such cases as well. Counts of survivors are from the toxicity check (mostly the fifth day) where no day follows; animals may have died later. Schedules are NCI's codes, taken here to give the interval after Q, in days (D) or hours (H), and the number of doses after X. Some molecules as drawn cover several salts, stereoisomers or complexes of the source; a dose is that of the sample tested. Some entries were tested several times; the results are listed from low to high. Where survival is the endpoint, the PubChem record calls one and a half times the control and up active, and a quarter to a half above the control has no call in these data; cut-offs in other NCI protocols can differ. Some T/C values are followed by the survivors on the day toxicity was checked, most often the fifth; without a count, all were alive then.

System: P388 leukemia ip, CD2F1 mice, survival T/C
Assay: NCI In Vivo Anticancer Drug Screen. Data for tumor model P388 Leukemia (intraperitoneal) in CD2F1 (CDF1) mice
Conditions: T/C endpoint: median survival time, higher T/C = longer survival
[1] = dose: 50.0 mg/kg/injection, schedule: Q01DX009 (ip), vehicle: saline with Tween-80
[2] = dose: 100.0 mg/kg/injection, schedule: Q01DX009 (ip), vehicle: suspension in saline
[3] = dose: 25.0 mg/kg/injection, schedule: Q01DX005 (ip), vehicle: Klucel (hydroxypropylcellulose) (HPC)
[4] = dose: 50.0 mg/kg/injection, schedule: Q01DX005 (ip), vehicle: Klucel (hydroxypropylcellulose) (HPC)
[5] = dose: 100.0 mg/kg/injection, schedule: Q01DX005 (ip), vehicle: Klucel (hydroxypropylcellulose) (HPC)
[6] = dose: 200.0 mg/kg/injection, schedule: Q01DX005 (ip), vehicle: Klucel (hydroxypropylcellulose) (HPC)
[7] = dose: 50.0 mg/kg/injection, schedule: Q01DX005 (ip), vehicle: saline
[8] = dose: 100.0 mg/kg/injection, schedule: Q01DX005 (ip), vehicle: saline
[9] = dose: 200.0 mg/kg/injection, schedule: Q01DX005 (ip), vehicle: saline
[10] = dose: 100.0 mg/kg/injection, schedule: Q01DX009 (ip), vehicle: saline with Tween-80
[11] = dose: 200.0 mg/kg/injection, schedule: Q01DX009 (ip), vehicle: saline with Tween-80

## CC(=O)OC1CC(n2cc(C)c(=O)[nH]c2=O)OC1COP(=O)(N1CC1(C)C)N1CC1(C)C (stereo not given)
dose: 50.0 mg/kg/injection, schedule: Q04DX003 (ip), vehicle: saline with Tween-80
  T/C: 138 % of control
dose: 100.0 mg/kg/injection, schedule: Q04DX003 (ip), vehicle: saline with Tween-80
  T/C: 141 % of control

## CC[N+](C)(CC)CCSC1=Nc2ccccc2N=C(c2ccc(Sc3ccccc3)cc2)C1
dose: 12.5 mg/kg/injection, schedule: Q01DX009 (ip), vehicle: Klucel (hydroxypropylcellulose) (HPC)
  survivor count: 2 of 6
dose: 25.0 mg/kg/injection, schedule: Q01DX009 (ip), vehicle: Klucel (hydroxypropylcellulose) (HPC)
  survivor count: 1 of 6
dose: 50.0 mg/kg/injection, schedule: Q01DX009 (ip), vehicle: Klucel (hydroxypropylcellulose) (HPC)
  survivor count: 0 of 6
dose: 100.0 mg/kg/injection, schedule: Q01DX009 (ip), vehicle: Klucel (hydroxypropylcellulose) (HPC)
  survivor count: 0 of 6
dose: 200.0 mg/kg/injection, schedule: Q01DX009 (ip), vehicle: Klucel (hydroxypropylcellulose) (HPC)
  survivor count: 0 of 6

## Clc1c(Cl)c(C[P+](CCP(c2ccccc2)c2ccccc2)(c2ccccc2)c2ccccc2)c(Cl)c(Cl)c1C[P+](CCP(c1ccccc1)c1ccccc1)(c1ccccc1)c1ccccc1
dose: 3.13 mg/kg/injection, schedule: Q01DX009 (ip), vehicle: suspension in saline
  T/C: 126 % of control
dose: 6.25 mg/kg/injection, schedule: Q01DX009 (ip), vehicle: suspension in saline
  T/C: 126 % of control
dose: 12.5 mg/kg/injection, schedule: Q01DX009 (ip), vehicle: suspension in saline
  T/C: 136 % of control [5 of 6 alive]
dose: 25.0 mg/kg/injection, schedule: Q01DX009 (ip), vehicle: saline with Tween-80
  survivor count: 0 of 6
dose: 25.0 mg/kg/injection, schedule: Q01DX009 (ip), vehicle: suspension in saline
  survivor count: 0 of 6
[1]
  survivor count: 0 of 6

## Cc1ccc(-c2cc(=O)c3cc(C)c(C)c(C#N)c3o2)cc1
dose: 60.0 mg/kg/injection, schedule: Q01DX005 (ip), vehicle: Klucel (hydroxypropylcellulose) (HPC)
  survivor count: 6 of 6

## [N-]=[N+]=Nc1c2c(nc3ccccc13)CCCC2
dose: 240.0 mg/kg/injection, schedule: Q01DX005 (ip), vehicle: saline with Tween-80
  survivor count: 1 of 6

## COc1ccc(C(=O)c2cc3c(ccc4ccccc43)oc2=O)cc1
dose: 50.0 mg/kg/injection, schedule: Q01DX009 (ip), vehicle: suspension in saline
  survivor count: 6 of 6
[2]
  survivor count: 5 of 6
dose: 200.0 mg/kg/injection, schedule: Q01DX009 (ip), vehicle: suspension in saline
  survivor count: 6 of 6

## O=c1[nH]nc(-c2ccc(Cl)cc2)c2cc(Cl)c(Cl)cc12
dose: 25.0 mg/kg/injection, schedule: Q04DX002 (ip), vehicle: distilled water + Tween-80
  survivor count: 6 of 6

## Cn1cnc2cc3c(cc2c1=O)nc1n3CCCC1
dose: 400.0 mg/kg/injection, schedule: Q04DX003 (ip), vehicle: saline
  survivor count: 3 of 6

## O=C(C=C(C(F)(F)F)C(F)(F)F)c1ccccc1[N+](=O)[O-]
dose: 12.5 mg/kg/injection, schedule: Q04DX003 (ip), vehicle: other
  survivor count: 6 of 6

## COc1ccc2c(C)cc(NN)nc2c1
[3]
  survivor count: 2 of 6
[4]
  survivor count: 0 of 6
[5]
  survivor count: 0 of 6
[6]
  survivor count: 0 of 6

## Cc1cccc(C(=O)C(CN(C)C)CN(C)C)c1
[7]
  survivor count: 0 of 6 and 1 of 5
[8]
  survivor count: 0 of 5
[9]
  survivor count: 0 of 5

## CCCCN(CCCC)C(=N)c1ccccc1Cl
[3]
  survivor count: 0 of 5
[4]
  survivor count: 0 of 5
[5]
  survivor count: 0 of 5
[6]
  survivor count: 0 of 5

## O=[N+]([O-])c1ccc(SCc2ccccc2)c2nonc12
dose: 12.5 mg/kg/injection, schedule: Q01DX009 (ip), vehicle: saline
  survivor count: 6 of 6
[2]
  T/C: 131 % of control

## COC(=O)c1ccc(C(=O)OC)c2nc3cc(C)c(C)cc3nc12
dose: 240.0 mg/kg/injection, schedule: Q01DX005 (ip), vehicle: Klucel (hydroxypropylcellulose) (HPC)
  survivor count: 1 of 6

## CCCC(CCC)NCC(O)c1cc(-c2ccc(C(F)(F)F)cc2)nc(C(F)(F)F)c1 (stereo not given)
[10]
  survivor count: 0 of 6
[11]
  survivor count: 0 of 6

## COC(=O)Nc1ccc(C2OCCN2C(=O)Nc2ccc(Cl)cc2)cc1 (stereo not given)
dose: 200.0 mg/kg/injection, schedule: Q01DX005 (ip), vehicle: saline with Tween-80
  survivor count: 5 of 6

## Nc1ccc(-c2csc(COc3ccccc3)n2)cc1
dose: 400.0 mg/kg/injection, schedule: Q01DX009 (ip), vehicle: Klucel (hydroxypropylcellulose) (HPC)
  survivor count: 0 of 6

## CCCN1CCc2cccc3c2C1Cc1ccc(O)c(O)c1-3 (stereo not given)
[10]
  T/C: 127 % of control
dose: 100.0 mg/kg/injection, schedule: Q01DX009 (ip), vehicle: saline
  T/C: 126 % of control
dose: 200.0 mg/kg/injection, schedule: Q01DX009 (ip), vehicle: saline
  survivor count: 3 of 3

## COc1ccc(CCN2COc3ccc4ccc(=O)oc4c3C2)cc1OC
[11]
  T/C: 130 % of control

## Nc1nc(N)nc(NCCSSCCNc2nc(N)nc(N)n2)n1
dose: 100.0 mg/kg/injection, schedule: Q01DX009 (ip), vehicle: other
  survivor count: 6 of 6
dose: 200.0 mg/kg/injection, schedule: Q01DX009 (ip), vehicle: other
  survivor count: 6 of 6

## CC(C)N=C(Nc1ccccc1)c1ccccc1
[1]
  survivor count: 6 of 6
dose: 100.0 mg/kg/injection, schedule: Q01DX009 (ip), vehicle: saline + Tween-80 + alcohol
  survivor count: 0 of 6
dose: 200.0 mg/kg/injection, schedule: Q01DX009 (ip), vehicle: saline + Tween-80 + alcohol
  survivor count: 0 of 6

## COC(=O)C1C(C2OC3OC(C)(C)OC3C3OC(C)(C)OC32)N1C(=O)Cl (stereo not given)
dose: 400.0 mg/kg/injection, schedule: Q04DX002 (ip), vehicle: saline with Tween-80
  survivor count: 4 of 6

## CC(C)=CCC(/C=N/N=C(N)N)C(C)C (stereo not given)
[7]
  survivor count: 5 of 6
[8]
  survivor count: 0 of 6
[9]
  survivor count: 0 of 6

## CN(C)CCCNc1cccc2c1C(=O)c1c(NCCCN(C)C)cccc1C2=O
dose: 50.0 mg/kg/injection, schedule: Q01DX009 (ip), vehicle: water
  survivor count: 6 of 6
dose: 100.0 mg/kg/injection, schedule: Q01DX009 (ip), vehicle: water
  survivor count: 6 of 6
dose: 200.0 mg/kg/injection, schedule: Q01DX009 (ip), vehicle: water
  survivor count: 1 of 6

## O=C(O)c1cccc2cccc(-c3c4ccc(=O)c(O)c-4oc4c(O)c(O)ccc34)c12
dose: 400.0 mg/kg/injection, schedule: Q01DX009 (ip), vehicle: saline with Tween-80
  survivor count: 4 of 6

## COc1cccc2c1C(=O)c1c(O)c3c(c(O)c1C2=O)C[C@@](O)(C(=O)CO)C[C@@H]3OC1CC(NCC#N)C(O)C(C)O1 (stereo not given in full)
dose: 4.0 mg/kg/injection, schedule: Q04DX003 (ip), vehicle: saline + Tween-80 + alcohol
  T/C: 128 % of control
dose: 8.0 mg/kg/injection, schedule: Q04DX003 (ip), vehicle: saline + Tween-80 + alcohol
  T/C: 144 % of control
dose: 16.0 mg/kg/injection, schedule: Q04DX003 (ip), vehicle: saline + Tween-80 + alcohol
  T/C: 137 % of control
dose: 16.0 mg/kg/injection, schedule: Q04DX003 (ip), vehicle: saline + alcohol
  T/C: 133 % of control
dose: 64.0 mg/kg/injection, schedule: Q04DX003 (ip), vehicle: saline + Tween-80 + alcohol
  survivor count: 2 of 5 on day 9
dose: 64.0 mg/kg/injection, schedule: Q04DX003 (ip), vehicle: saline + alcohol
  survivor count: 6 of 6 on day 9

## O=S(=O)(CS(=O)(=O)c1ccc(Cl)c(Cl)c1)c1ccc(Cl)c(Cl)c1
dose: 240.0 mg/kg/injection, schedule: Q01DX005 (ip), vehicle: Klucel + Tween-80
  survivor count: 4 of 6

## OCCN1CCN(CC/C=C2\c3ccccc3COc3ccc(Cl)cc32)CC1
dose: 25.0 mg/kg/injection, schedule: Q04DX003 (ip), vehicle: saline
  T/C: 125 % of control
dose: 50.0 mg/kg/injection, schedule: Q04DX003 (ip), vehicle: saline
  T/C: 145 % of control [5 of 6 alive]
